Common to all, as to experiment: protein microarray (ProtoArray v5.0), streptavidin-Alexa Fluor 647
Settings in all cases: 3'-biotin; 20 mM Tris (pH 7.5), 5 mM MgCl2, 100 mM KCl, 0.1% Tween-20, A/T-rich and random oligonucleotide blockers; temperature not stated; high values mean tight binding

Assay [1] concerns cDNA clone MGC:45422 IMAGE:5246377 (human).
Assay [2] deals with cDNA clone MGC:48448 IMAGE:5266019 (human).
Assay [3] concerns cDNA clone MGC:52019 IMAGE:5188979 (human).
Assay [4] concerns cDNA clone MGC:70358 IMAGE:5539182 (human).
Assay [5] has as its system cDNA clone MGC:8430 IMAGE:2821116 (human).
The subject of assay [6] is cDNA clone MGC:87928 IMAGE:5104751 (human).
Assay [7] concerns cDNA clone MGC:88809 IMAGE:6279986 (human).
Assay [8] has as its system guanine-9- (human).
The test system of assay [9] is hypothetical LOC554201 (human).
Assay [10] has as its system mRNA similar to hypothetical protein FLJ20234 (human).

Here are results for one sequence from article PMC5996148.

This is one part of the list.

Consider “GGTGACAGGGGTATGGGGAGGGG [G4-2 biotinylated (Ct1)]”, for which the binding signal in [1] was 6.09 z-score; in assay [2], -0.368 z-score; in assay [3], -0.379 z-score; in assay [4], -0.39 z-score; in assay [5], -0.389 z-score; in assay [6], -0.39 z-score. Also, the binding signal in assay [7] was -0.374 z-score; in [8], 3.44 z-score; in [9], -0.39 z-score; in [10], -0.379 z-score.
